Source: article PMC8241057
These are yes or no findings as the source states them, for the method shown. Some results given as binding are weak or reduced against the parent protein; the word gives no strength.

By UniProt entry, the sequences of proteins in these tests, tags left out. Residues count along the entry.
UniProt P54760, residues 16-987: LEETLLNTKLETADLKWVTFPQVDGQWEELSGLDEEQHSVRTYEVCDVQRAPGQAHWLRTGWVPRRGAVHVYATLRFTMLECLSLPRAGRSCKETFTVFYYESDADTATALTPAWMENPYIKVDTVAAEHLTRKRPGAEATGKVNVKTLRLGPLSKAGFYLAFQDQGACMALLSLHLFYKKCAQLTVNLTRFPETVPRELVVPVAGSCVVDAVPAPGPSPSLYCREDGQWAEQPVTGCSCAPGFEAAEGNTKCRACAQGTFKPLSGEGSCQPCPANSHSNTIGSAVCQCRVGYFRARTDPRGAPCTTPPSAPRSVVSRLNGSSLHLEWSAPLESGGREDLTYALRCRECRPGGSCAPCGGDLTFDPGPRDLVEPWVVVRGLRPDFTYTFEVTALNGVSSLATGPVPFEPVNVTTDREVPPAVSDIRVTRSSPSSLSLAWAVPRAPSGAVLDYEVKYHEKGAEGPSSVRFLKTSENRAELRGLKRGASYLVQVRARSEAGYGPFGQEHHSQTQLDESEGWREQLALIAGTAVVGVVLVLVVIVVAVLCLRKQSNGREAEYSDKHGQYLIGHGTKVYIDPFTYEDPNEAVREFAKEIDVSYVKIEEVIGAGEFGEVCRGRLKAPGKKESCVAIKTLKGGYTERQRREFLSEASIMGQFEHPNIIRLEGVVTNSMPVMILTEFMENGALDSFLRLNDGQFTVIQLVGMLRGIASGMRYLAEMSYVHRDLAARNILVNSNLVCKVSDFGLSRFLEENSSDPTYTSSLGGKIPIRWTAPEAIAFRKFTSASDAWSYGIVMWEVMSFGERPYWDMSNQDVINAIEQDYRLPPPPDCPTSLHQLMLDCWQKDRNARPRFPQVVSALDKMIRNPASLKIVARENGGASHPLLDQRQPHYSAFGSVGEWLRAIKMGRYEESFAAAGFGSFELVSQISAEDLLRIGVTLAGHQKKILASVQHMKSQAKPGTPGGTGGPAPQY
UniProt P54761, residues 16-987: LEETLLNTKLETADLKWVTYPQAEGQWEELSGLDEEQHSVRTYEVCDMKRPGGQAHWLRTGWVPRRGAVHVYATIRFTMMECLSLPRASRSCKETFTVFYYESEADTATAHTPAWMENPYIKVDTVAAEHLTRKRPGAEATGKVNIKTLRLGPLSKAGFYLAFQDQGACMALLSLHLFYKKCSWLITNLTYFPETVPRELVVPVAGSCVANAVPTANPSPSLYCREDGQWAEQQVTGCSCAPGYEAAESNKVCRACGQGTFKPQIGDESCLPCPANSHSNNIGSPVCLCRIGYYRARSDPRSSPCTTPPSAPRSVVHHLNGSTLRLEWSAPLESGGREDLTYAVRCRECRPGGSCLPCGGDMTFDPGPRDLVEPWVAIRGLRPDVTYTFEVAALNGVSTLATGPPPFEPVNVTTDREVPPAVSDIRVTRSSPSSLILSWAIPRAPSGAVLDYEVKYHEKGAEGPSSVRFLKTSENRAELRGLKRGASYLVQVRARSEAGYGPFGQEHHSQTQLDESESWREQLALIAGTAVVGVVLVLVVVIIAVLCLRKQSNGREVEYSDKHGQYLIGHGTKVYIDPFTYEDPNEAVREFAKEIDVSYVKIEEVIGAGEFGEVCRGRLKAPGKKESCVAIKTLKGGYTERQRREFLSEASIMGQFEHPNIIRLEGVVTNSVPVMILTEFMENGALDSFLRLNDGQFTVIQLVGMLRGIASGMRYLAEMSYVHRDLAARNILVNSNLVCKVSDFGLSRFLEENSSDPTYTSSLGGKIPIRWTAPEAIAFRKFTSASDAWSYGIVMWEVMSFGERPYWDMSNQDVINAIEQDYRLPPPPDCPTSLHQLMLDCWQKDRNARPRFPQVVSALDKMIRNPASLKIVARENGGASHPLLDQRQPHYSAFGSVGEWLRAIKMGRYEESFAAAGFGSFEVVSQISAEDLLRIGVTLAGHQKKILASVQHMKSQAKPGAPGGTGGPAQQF

Columns and labels:
[1] = molecular target: EphB4 receptor on SKOV3 cells (human (endogenous in SKOV3)) (UniProt P54760); experiment: confocal microscopy of cellular uptake; co-cultured SKOV3/A549 or CT26/NCM460 cells incubated 1 h in growth medium with RITC-labelled HP-TCS micelles (40 ug/mL polymer), with or without free TNYL (100:1 mol:mol over TNYL of the micelles); washed with PBS three times; only the binder purified
[2] = molecular target: EphB4 receptor on CT26 cells (mouse (endogenous in CT26)) (UniProt P54761); experiment: as above

For TNYLFSPNGPIARAW (conjugated onto the surface of CSO-SA micelles) [TNYL peptide conjugated onto the surface of CSO-SA micelles loaded with HAuNS and PTX (HP-TCS)], the binding [1] was “binds” and the binding [2] was “binds”.
